Experimental data taken from publication doi:10.1101/409508.
Results are given in words; binding and its absence hold for the method and conditions named. Binding seen in cells or lysates may run through a third protein. Some entries that bind do so weakly or less than the wild type.

Protein sequences, listed by entry. Tags and fused reporters are not part of them. Lines headed by an entry give the natural chain unless they say otherwise; changes in a name come on top.
UniProt P54619: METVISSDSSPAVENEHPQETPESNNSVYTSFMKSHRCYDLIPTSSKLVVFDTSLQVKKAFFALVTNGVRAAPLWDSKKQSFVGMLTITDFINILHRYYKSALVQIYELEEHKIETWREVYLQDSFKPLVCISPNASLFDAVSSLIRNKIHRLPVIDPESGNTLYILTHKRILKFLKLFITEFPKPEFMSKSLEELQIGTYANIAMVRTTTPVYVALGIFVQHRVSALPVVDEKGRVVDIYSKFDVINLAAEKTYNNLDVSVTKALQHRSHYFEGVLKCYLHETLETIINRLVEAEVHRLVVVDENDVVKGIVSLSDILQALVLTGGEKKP
UniProt P78527: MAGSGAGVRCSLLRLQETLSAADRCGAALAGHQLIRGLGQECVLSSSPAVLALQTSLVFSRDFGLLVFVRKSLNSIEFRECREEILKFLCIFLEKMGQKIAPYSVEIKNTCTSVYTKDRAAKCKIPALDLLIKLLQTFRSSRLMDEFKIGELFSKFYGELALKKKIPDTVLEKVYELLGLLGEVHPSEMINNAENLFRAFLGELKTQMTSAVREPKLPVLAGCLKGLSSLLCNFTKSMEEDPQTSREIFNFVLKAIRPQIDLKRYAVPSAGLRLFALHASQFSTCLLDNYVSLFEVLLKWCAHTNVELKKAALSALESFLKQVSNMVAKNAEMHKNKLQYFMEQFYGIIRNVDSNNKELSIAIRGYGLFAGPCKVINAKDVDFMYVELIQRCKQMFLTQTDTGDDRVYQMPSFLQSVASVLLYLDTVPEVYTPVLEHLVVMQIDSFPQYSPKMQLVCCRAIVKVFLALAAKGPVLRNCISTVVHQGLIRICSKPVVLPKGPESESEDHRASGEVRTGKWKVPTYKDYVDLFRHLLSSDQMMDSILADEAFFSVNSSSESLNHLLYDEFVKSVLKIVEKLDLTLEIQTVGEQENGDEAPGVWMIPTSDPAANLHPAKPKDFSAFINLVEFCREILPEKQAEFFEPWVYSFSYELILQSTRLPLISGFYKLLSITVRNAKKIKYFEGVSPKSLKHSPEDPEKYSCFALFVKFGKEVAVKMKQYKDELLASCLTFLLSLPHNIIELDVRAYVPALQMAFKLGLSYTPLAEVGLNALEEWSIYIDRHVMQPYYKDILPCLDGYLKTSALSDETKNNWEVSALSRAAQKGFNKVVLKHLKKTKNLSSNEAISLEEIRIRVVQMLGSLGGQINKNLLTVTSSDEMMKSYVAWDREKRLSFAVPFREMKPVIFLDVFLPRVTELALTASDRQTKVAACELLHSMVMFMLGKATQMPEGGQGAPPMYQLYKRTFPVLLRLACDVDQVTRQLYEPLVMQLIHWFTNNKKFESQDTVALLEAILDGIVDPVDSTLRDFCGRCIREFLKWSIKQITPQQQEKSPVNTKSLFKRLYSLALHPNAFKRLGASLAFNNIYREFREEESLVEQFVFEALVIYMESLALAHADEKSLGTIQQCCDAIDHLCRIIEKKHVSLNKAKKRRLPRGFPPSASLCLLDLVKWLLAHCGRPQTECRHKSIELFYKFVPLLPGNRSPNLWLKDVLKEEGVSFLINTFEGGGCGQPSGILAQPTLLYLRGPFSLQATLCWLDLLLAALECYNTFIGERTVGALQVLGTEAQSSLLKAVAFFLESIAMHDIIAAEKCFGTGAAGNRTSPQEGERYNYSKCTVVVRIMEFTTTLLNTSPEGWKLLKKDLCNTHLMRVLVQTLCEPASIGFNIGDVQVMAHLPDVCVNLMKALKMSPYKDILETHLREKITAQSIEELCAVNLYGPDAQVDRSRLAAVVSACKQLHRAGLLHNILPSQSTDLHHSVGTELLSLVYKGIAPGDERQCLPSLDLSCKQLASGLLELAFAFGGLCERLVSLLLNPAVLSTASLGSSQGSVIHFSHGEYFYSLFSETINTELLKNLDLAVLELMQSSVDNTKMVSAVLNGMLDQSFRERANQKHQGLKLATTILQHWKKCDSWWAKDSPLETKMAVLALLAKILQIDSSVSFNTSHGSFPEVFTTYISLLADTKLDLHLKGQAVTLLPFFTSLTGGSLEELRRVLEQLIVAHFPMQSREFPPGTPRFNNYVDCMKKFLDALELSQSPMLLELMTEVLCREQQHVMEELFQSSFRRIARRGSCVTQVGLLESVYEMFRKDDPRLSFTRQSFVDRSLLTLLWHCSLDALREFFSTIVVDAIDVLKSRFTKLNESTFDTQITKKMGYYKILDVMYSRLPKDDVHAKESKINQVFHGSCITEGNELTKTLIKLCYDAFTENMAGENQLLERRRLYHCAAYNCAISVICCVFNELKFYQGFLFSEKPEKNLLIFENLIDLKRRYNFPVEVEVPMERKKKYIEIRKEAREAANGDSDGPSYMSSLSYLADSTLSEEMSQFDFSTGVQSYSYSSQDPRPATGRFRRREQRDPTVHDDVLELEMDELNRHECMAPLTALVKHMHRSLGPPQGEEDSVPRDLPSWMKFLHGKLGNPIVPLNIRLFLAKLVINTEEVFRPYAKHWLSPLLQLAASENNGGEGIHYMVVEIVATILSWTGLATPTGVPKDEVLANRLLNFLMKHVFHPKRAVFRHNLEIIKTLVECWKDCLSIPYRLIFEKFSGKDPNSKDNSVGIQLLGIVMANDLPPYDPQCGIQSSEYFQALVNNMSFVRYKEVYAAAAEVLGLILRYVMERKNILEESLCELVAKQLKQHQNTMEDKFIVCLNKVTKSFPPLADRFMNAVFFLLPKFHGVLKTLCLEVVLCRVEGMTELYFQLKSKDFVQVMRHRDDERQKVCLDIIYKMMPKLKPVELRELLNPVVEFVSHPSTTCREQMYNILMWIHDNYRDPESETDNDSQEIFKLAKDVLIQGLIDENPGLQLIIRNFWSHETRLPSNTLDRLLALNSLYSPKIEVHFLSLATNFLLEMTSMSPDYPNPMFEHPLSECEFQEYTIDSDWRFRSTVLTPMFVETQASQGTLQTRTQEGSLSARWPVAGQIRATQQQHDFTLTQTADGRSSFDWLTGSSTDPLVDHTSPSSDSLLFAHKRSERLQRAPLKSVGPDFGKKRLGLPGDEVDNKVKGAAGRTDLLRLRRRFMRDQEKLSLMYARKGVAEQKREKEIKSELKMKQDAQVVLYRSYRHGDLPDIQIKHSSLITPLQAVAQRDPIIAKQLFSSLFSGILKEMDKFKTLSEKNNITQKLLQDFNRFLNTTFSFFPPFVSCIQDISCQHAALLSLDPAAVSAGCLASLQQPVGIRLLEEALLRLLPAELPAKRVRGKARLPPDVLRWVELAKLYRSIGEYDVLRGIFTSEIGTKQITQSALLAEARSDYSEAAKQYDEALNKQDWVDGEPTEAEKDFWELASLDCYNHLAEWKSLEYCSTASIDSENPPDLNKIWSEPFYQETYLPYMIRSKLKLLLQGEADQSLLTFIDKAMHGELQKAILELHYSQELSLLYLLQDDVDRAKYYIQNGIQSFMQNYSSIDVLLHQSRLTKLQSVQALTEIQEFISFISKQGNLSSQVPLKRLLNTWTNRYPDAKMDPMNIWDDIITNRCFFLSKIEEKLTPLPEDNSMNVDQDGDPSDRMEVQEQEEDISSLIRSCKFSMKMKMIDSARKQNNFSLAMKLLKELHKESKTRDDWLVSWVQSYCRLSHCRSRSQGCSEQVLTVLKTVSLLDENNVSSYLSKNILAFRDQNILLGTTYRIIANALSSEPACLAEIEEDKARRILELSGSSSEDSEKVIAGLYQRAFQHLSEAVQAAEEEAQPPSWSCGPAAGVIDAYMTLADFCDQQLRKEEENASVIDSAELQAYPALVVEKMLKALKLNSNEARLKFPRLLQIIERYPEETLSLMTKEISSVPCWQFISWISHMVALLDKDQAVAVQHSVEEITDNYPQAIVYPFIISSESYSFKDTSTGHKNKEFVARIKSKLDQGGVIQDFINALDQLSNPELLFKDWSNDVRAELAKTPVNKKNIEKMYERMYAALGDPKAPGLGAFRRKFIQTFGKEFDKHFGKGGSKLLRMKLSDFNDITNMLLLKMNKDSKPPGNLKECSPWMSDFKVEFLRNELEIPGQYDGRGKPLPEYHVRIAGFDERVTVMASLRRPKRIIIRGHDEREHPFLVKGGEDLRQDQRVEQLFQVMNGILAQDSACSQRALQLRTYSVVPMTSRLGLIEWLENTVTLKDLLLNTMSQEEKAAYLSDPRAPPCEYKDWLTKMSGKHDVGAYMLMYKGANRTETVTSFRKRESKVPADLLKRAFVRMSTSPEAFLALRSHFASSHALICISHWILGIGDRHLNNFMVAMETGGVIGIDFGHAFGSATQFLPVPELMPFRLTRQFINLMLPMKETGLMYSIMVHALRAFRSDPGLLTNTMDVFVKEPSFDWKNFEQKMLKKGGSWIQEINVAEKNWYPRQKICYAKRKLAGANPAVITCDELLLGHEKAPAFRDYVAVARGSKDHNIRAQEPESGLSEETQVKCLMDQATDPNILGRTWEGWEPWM

Experiments:
Assay in all cases: co-IP
[1] = molecular target: AMPKγ1-mCh-Flag S192A/T284A (AA mutant) (UniProt P54619)
[2] = molecular target: AMPKγ1-mCh-Flag wild type (UniProt P54619)
[3] = molecular target: T1, Unc-51-like kinase 1 (ULK1) (human (endogenous in U2OS)) (UniProt O75385)
T1 sequence: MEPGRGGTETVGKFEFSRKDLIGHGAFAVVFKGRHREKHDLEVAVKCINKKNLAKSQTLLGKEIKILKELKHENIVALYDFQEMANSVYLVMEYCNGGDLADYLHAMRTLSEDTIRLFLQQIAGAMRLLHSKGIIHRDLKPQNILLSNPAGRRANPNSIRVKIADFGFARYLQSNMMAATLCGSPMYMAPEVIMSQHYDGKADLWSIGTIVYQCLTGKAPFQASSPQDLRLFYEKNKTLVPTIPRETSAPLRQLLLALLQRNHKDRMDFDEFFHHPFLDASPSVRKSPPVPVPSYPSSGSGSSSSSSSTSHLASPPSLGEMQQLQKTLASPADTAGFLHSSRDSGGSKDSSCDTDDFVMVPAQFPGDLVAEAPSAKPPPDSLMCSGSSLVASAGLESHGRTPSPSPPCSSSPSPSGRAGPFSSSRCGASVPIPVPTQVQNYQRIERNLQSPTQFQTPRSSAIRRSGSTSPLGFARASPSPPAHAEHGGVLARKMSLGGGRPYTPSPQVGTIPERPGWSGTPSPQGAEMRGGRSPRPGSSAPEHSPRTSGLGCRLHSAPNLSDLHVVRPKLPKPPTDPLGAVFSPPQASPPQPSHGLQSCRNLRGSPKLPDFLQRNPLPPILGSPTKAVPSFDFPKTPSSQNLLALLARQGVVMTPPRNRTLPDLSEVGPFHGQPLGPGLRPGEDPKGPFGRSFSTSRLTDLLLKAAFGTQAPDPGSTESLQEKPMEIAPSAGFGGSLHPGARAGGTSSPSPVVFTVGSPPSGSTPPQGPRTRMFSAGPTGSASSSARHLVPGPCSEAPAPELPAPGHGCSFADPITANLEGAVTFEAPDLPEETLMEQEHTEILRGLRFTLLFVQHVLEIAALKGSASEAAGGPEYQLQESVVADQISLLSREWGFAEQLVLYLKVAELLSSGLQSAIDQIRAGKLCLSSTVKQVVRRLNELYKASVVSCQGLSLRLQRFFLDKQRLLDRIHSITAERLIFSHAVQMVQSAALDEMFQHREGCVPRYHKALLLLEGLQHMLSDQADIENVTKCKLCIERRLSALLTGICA

binding [1]: binds
binding [2]: binds
binding [3]: binds
Substance: catalytic subunit of DNA-dependent protein kinase (DNA-PKcs) (from UniProt P78527 1-4128)
